{"source": "PubChem BioAssay AID1347423", "about": "(Functional Genomics Laboratory (NCATS/FGL), 2020)", "note": "Among all 52,000 sequences or so, about 210 (0.4%) were called active.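 How the source made its calls: active means gene whose silencing raises cell survival under the drug, median off-target-corrected z-score across its silencing RNAs 2 or more; inactive means the rest.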 The list shows a part of the results."}
{"assay": "Resistance to Poly (ADP-Ribose) Polymerase inhibitor: Gene Identification via Genome-wide siRNA Screen", "details": "mouse BRCA2 R2336H ES cells, olaparib, CellTiter-Glo viability; stronger effect = higher value", "summary_of_the_method": "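Genome-wide siRNA screen (3 siRNAs/gene, 20 nM) in mouse ES cells carrying hypomorphic BRCA2 R2336H; olaparib 500 nM added 48 h post-transfection, CellTiter-Glo viability 72 h later. Normalized to plate-median negative control; MAD z-scores, gene median, seed-adjusted.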"}
{"sequence": "CGUUCUCGUUCUGUUUAUUTT against Ctps2", "z-score": "inactive: 0.545"}
{"sequence": "GGUGUUUGAAUGGAAGGACTT against Idua", "z-score": "inactive: -1.37"}
{"sequence": "GGAUUCUCAUCUGUCAUAATT against Slc26a3", "z-score": "inactive: -0.344"}
{"sequence": "CGCUAACUGGAAAGAAACUTT against Dusp19", "z-score": "inactive: -1.06"}
{"sequence": "GGAAUUGGAUUCAAGUAUGTT against 1200002M06Rik", "z-score": "inactive: 0.973"}
{"sequence": "CCAAUCUUCUCCUCAAGACTT against Olfr101", "z-score": "inactive: -0.345"}
{"sequence": "GCUGCUGCUAUAUAUUGAATT against Wsb1", "z-score": "inactive: 0.776"}
{"sequence": "GCCAUAACCUACAUUGUCATT against Loxhd1", "z-score": "inactive: -0.98"}
{"sequence": "GCAUGCAGUAAUUGAAAUCTT against Mdc1", "z-score": "inactive: -2.1"}
{"sequence": "GCAAGGAGACCGAUAUCAATT against Huwe1", "z-score": "inactive: -0.467"}
{"sequence": "GGAAGAAAUGAUAUUCUCATT against Nek11", "z-score": "inactive: 0.885"}
{"sequence": "GCGUGACACUAACAAAAAGTT against 4933429F08Rik", "z-score": "inactive: 1.06"}
{"sequence": "GGUGACCUCACAUUUGACUTT against Dpagt1", "z-score": "inactive: 1.11"}
{"sequence": "GGUUGCUCGGUUAGACUGUTT against Ipo11", "z-score": "inactive: -1.14"}
{"sequence": "GGUGCAACAAUAUGAGACATT against Prom2", "z-score": "inactive: 0.373"}
{"sequence": "GGAUAAGGGAAUCACUAUCTT against D10Bur2e", "z-score": "inactive: -0.425"}
{"sequence": "GGGCAGGGACAUUAGUCAUTT against Zfp106", "z-score": "inactive: -1.62"}
{"sequence": "CCAAACUUAAGCCUAUUCUTT against Mme", "z-score": "inactive: -0.138"}
{"sequence": "CGAUAAUUGGCUAAACAGATT against Hook3", "z-score": "inactive: 0.185"}
{"sequence": "GCUAAUGACUUCUUCAGACTT against Slc25a22", "z-score": "inactive: 1.23"}
{"sequence": "GGCAUCAAUAAUGGAAUCATT against Sbsn", "z-score": "inactive: -0.399"}
{"sequence": "CCAGCACGCUGAAGUCUGATT against Adam19", "z-score": "inactive: -1.2"}
{"sequence": "GGAUGACCAAUCAAUCAGGTT against Mylk", "z-score": "inactive: 0.267"}
{"sequence": "GGAGUGAUGUGCAAUACUUTT against Pgam1", "z-score": "inactive: -1.21"}
{"sequence": "GCGCAUUCUGCAUCAUGCUTT against Chi3l3", "z-score": "inactive: -0.374"}
{"sequence": "GUGGACAUCCUCUCUGUCATT against 1810017F10Rik", "z-score": "inactive: -0.823"}
{"sequence": "UCACCCUGUUCGUAAUCAUTT against Olfr467", "z-score": "inactive: -0.886"}
{"sequence": "CCUAGAUGUUUGUUUGGCUTT against Antxr2", "z-score": "inactive: 0.226"}
{"sequence": "GCAUAUGGACUUUCUGUCATT against 1700069O15Rik", "z-score": "inactive: -0.349"}
{"sequence": "GGAACCUCUCAAUUUUGCGTT against 1500004A08Rik", "z-score": "inactive: -1.16"}
{"sequence": "CGUGCAUGUGUAAGUCAGGTT against Hpvc2", "z-score": "inactive: 0.307"}
{"sequence": "CGAAUGUGUGAGAGAACAUTT against Zfp322a", "z-score": "inactive: -2.08"}
{"sequence": "GGACCUGAAGAAAUAUUUCTT against Cdk5", "z-score": "inactive: 0.437"}
{"sequence": "GGAAAGAGAUGAGAAUUUUTT against 4930447C04Rik", "z-score": "inactive: 1.3"}
{"sequence": "GGCUACCAGUUUAUCCACATT against Has3", "z-score": "inactive: -0.192"}
{"sequence": "GCUUUUUGUGAAACUGGCCTT against Pstpip2", "z-score": "inactive: 1.38"}
{"sequence": "GGUACCUCUGGAAAAUGAGTT against Rfng", "z-score": "inactive: 0.931"}
{"sequence": "GGCCAUUGCCAAGCACAAUTT against Trim35", "z-score": "inactive: -0.397"}
{"sequence": "GGUCCUUGGAGAAGAUAUUTT against 2510006D16Rik", "z-score": "inactive: -1.43"}
{"sequence": "GCUUGUACUCUUUGGCCGGTT against Rabac1", "z-score": "inactive: 1.25"}
{"sequence": "CGGAAGUCUACACGUCUUGTT against 2610034B18Rik", "z-score": "inactive: -1.49"}
{"sequence": "GGAAGAGGAUGACAAGACATT against 1300010K09Rik", "z-score": "inactive: -0.207"}
{"sequence": "GGCUACGUAGAUGUUGUAATT against Ankrd17", "z-score": "inactive: -0.482"}
{"sequence": "GGAUUUUCACUUUUACUCUTT against BC031748", "z-score": "inactive: -0.035"}
{"sequence": "GGACCCGUAUUUUAUGAAGTT against Sf3a2", "z-score": "inactive: -1.67"}
{"sequence": "GGCUCUGACCAAGAAUGAUTT against Cpsf1", "z-score": "inactive: 1.05"}
{"sequence": "CGGGACCUUUGUAACAGCUTT against Sirt3", "z-score": "inactive: 0.676"}
{"sequence": "CCAAUUGCUCUCCAUGAAATT against Coro1c", "z-score": "inactive: 0.402"}
{"sequence": "GGAGAAGUGGGUUAAGAAUTT against Ccl12", "z-score": "inactive: -0.585"}
{"sequence": "CCACAUUAGGUGGAUAGGATT against E2f6", "z-score": "inactive: -0.183"}
{"sequence": "CGCGUGAUUGAUGUUUUACTT against Sca10", "z-score": "inactive: 0.765"}
{"sequence": "GCUAUGAAAGGGCGAUUUGTT against Optn", "z-score": "inactive: 1.77"}
{"sequence": "GGAGGCUUAGGAUAAUUUATT against 2810046L04Rik", "z-score": "inactive: -0.332"}
{"sequence": "CCUCACUUAACCAUACAUGTT against Rhoe", "z-score": "inactive: -0.16"}
{"sequence": "GGGAGACUGGUUCUUGAAGTT against Slc38a5", "z-score": "inactive: 1.47"}
{"sequence": "GGAGUUCUUUCUGAUAUCATT against Net1", "z-score": "inactive: 3.65"}
{"sequence": "GGAUGGAUGAUCCAUACUGTT against Sell", "z-score": "inactive: 0.429"}
{"sequence": "GCAAGAAUCUGCUCUUAGUTT against AW547186", "z-score": "inactive: -0.375"}
{"sequence": "CCCUAUAAGCAACUUAUGCTT against MGC6357", "z-score": "inactive: 0.548"}
{"sequence": "GGCAUCACUGGUAAACAUUTT against Frzb", "z-score": "inactive: -1.68"}
{"sequence": "GCUUGCCUGCAUGGAUACATT against Olfr1203", "z-score": "inactive: -0.104"}
{"sequence": "GGAUUACGCAGAUUCCAUUTT against Rab22a", "z-score": "inactive: -0.235"}
{"sequence": "GCCACUGGGACCUAUUGAUTT against 6230410P16Rik", "z-score": "inactive: 0.0057"}
{"sequence": "CGAAGAGAAGUUAUUUGUATT against Mrps23", "z-score": "inactive: 0.797"}
{"sequence": "GAACCUAAAGUCAUACUUGTT against Bcl2a1c", "z-score": "inactive: -0.796"}
{"sequence": "GCAGAUUUUAGCUCCUCGATT against 5730410E15Rik", "z-score": "inactive: -0.297"}
{"sequence": "GGAAAAUCAAGACCUAUGGTT against Obox6", "z-score": "inactive: -2.62"}
{"sequence": "GGAGAGAAAUCCAAAACCCTT against Arf6", "z-score": "inactive: 0.524"}
{"sequence": "GGAAAAGACAUCAUUGUGCTT against Olfr914", "z-score": "inactive: 0.837"}
{"sequence": "GGCAGAAGGAACAAGAGAATT against Cd209b", "z-score": "inactive: -0.78"}
{"sequence": "CCAUUUAUAUCAGGCAUCATT against Lrrc21", "z-score": "inactive: -0.0912"}
{"sequence": "GGAAGUCAAGCAAAAGUUUTT against Hsd17b7", "z-score": "inactive: -0.221"}
{"sequence": "GGAAUGAAAGACAACCUAATT against Epb4.2", "z-score": "inactive: -0.254"}
{"sequence": "GCUUCCUAGAUCAUGACUGTT against Ube2g2", "z-score": "inactive: -0.719"}
{"sequence": "GGCCAAGUUCGGCAUCUUUTT against 0610025O11Rik", "z-score": "inactive: 1.53"}
{"sequence": "GGUAGUGCAAGUGUUCCGCTT against Kcns1", "z-score": "inactive: 1.13"}
{"sequence": "GGAGGCCAAAGGACUGAUCTT against AU042671", "z-score": "inactive: 0.245"}
{"sequence": "GCUGUACGAGAAUAAGAAGTT against Impact", "z-score": "inactive: -0.431"}
{"sequence": "GCCUCUACAAGCCAACAUGTT against Pdgfc", "z-score": "inactive: -1.94"}
{"sequence": "CCAGAGCGAGUACAUUGCATT against Xpnpep1", "z-score": "inactive: -2.63"}
{"sequence": "GAGCGAACAUGUGUUUUACTT against Hist1h4h", "z-score": "inactive: 0.062"}
{"sequence": "GGAGCAAAAAUUCUCCCAUTT against Il18rap", "z-score": "inactive: -1.16"}
{"sequence": "GGCCAUGAUGGCUUUUACUTT against Serpinf2", "z-score": "inactive: 1.68"}
{"sequence": "GGUUCCUGAGUCCUGAAUUTT against Mrpl19", "z-score": "inactive: -2.51"}
{"sequence": "CCUAAGUAAGAUGACAUUUTT against Slc35f5", "z-score": "inactive: -0.877"}
{"sequence": "GGGAGAAAAAGCCCGGUGATT against Slc22a18", "z-score": "inactive: -0.711"}
{"sequence": "CCAGUAAAACCUCUAACAATT against Kremen", "z-score": "inactive: -0.422"}
{"sequence": "CCUAAUGAUAGAGGAGCUGTT against Myoz3", "z-score": "inactive: -0.849"}
{"sequence": "GGUCUCCAAGGAAAAUGAGTT against H2-Q2", "z-score": "inactive: -0.529"}
{"sequence": "GGGUACCUCCCUGAGAUAUTT against Tyrobp", "z-score": "inactive: 0.844"}
{"sequence": "GGAGAGUCCACUAAUACUGTT against Dmrt3", "z-score": "inactive: -1.02"}
{"sequence": "GGGAUGCAUUUCUCAAAUCTT against Olfr731", "z-score": "inactive: 0.0578"}
{"sequence": "GGAAACUUACAAACUGCCGTT against Bhlhb2", "z-score": "inactive: 1.03"}
{"sequence": "CGAGGUCUGUGCUUAUGAGTT against 3321401G04Rik", "z-score": "inactive: 0.365"}
{"sequence": "GAUGGAUCGAACUCUGCACTT against Stard10", "z-score": "inactive: 0.256"}
{"sequence": "GGUCAACAUGGAGAAGUACTT against Sp100", "z-score": "inactive: -1.34"}
{"sequence": "UGCUUUCAUUCUAACAAGCTT against Olfr926", "z-score": "inactive: -0.531"}
{"sequence": "GGAACAGCCUGUCAUUGAATT against Scn1a", "z-score": "inactive: -0.152"}
{"sequence": "GUGUGUGAUGUUCCCUAUGTT against LOC56628", "z-score": "inactive: 0.0282"}
{"sequence": "CGUAGAUCUGGAUUGCUUUTT against Poli", "z-score": "inactive: -1.29"}
{"sequence": "GGUGUUUACUAGUUUCUGATT against Neurod6", "z-score": "inactive: 1.18"}
{"sequence": "CCGAAUGUGGAUGUGAUGATT against 4930518F03Rik", "z-score": "inactive: 1.22"}
{"sequence": "GGAUACGACACCAAGAAUATT against C230093N12Rik", "z-score": "inactive: -0.442"}
{"sequence": "GGGCUCCUUGUUUUAUUCUTT against 2610524G07Rik", "z-score": "inactive: 0.812"}
